Reference: the supplement of paper PMC5407854, “Inhibitor of ppGalNAc-T3-mediated O-glycosylation blocks cancer cell invasiveness and lowers FGF23 levels” (eLife, 2017)
The full ranking holds about 1,700 compounds; the median of “T3 sensor activation Q score (MG/GFP ratio z-score vs DMSO controls)” is about 0.25, and the highest 2% start at about 1.9. Some of the results follow.

The compounds below were run on ppGalNAc-T3 sensor (assay: T3 sensor activation Q score (MG/GFP ratio z-score vs DMSO controls) (SD units); higher = more sensor activation (inhibition of ppGalNAc-T3 glycosylation)). Conditions: HEK293 sensor cells; 10 µM; 6 h.
Procedure: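 Cells were treated with compound at 10 uM for 6 h, then MG/GFP ratio was read by flow cytometry (10,000 cells per well, duplicate wells). Q = (R - R_neg)/SD_neg relative to DMSO vehicle controls; the signal rises when the glycosyltransferase is inhibited.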

Compound	T3 sensor activation Q score
CN1CCN(c2ccc([N+](=O)[O-])c3no[n+]([O-])c23)CC1	-0.95
COc1c(OP2(=S)OCC(C)(C)CO2)cnn(C2CCCCC2)c1=O	0.85
CC(=O)OC1CCC2(C)C(CCC3C2CC(=O)C2(C)C3CC(N3CC3)C2C(C)=O)C1 (stereo not given)	0.25
N.N.[Cl][Pt][Cl]	0.05
CC1=C(O)C(=O)C=C2C1=CC=C1[C@@]2(C)CC[C@@]2(C)[C@@H]3C[C@](C)(C(=O)O)CC[C@]3(C)CC[C@]12C	-4.6
O=P(Oc1ccccc1)(Oc1ccccc1)c1ccccc1	-0.75
O=C(O)CCCc1ccc(N(CCCl)CCCl)cc1	0.55
c1ccc2nc(OCCN3CC3)ccc2c1	1
C=CCCC1(C2=CCCCC2)C(=O)NC(=O)NC1=O	0.55
Cc1ccccc1-n1c(C=Cc2ccccn2)nc2ccccc2c1=O	-0.25
COc1ccc(C2=CC(c3ccc(OC)c(OC)c3)c3c(c4ccccc4oc3=O)O2)cc1OC (stereo not given)	-1.85
CC(C)OC1CCCC(O)C1CC(=O)O (stereo not given)	0.15
Cn1cnc([N+](=O)[O-])c1N=C(N)N	0.25
CNC(=O)Oc1c(C)[nH]ccc1=O	1.25
O=S(=O)(F)c1ccc2nc(-c3cccc(Sc4ccccc4)c3)cc(Cl)c2c1	-0.55
Cc1ccc(C=C2C(Cl)=C(Cl)C(Cl)=C2Cl)cc1	-1.65
COC(=O)c1nc(-c2ccc3c(n2)C(=O)C(N)=C(OC)C3=O)c(N)c(-c2ccc(OC)c(OC)c2O)c1C	-1.65
OCC1CN1C1CCCCC1 (stereo not given)	1
Cc1ccc(-n2c(O)c(C=N)c(=O)n(-c3ccc(C)cc3)c2=O)cc1	0.5
O=[N+]([O-])c1cc(-c2ccc([As](=O)(O)O)cc2)ccc1[As](=O)(O)O	-0.45

Compound	T3 sensor activation Q score
CC12CCC3C(CC=C4CC(O)CCC43C)C1C/C(=C\N1CCCC1)C2=O (stereo not given)	1.9
C/C=C(/C)C(=O)O[C@H]1CCN2CC=C(COC(=O)[C@@](O)([C@H](C)OC)C(C)(C)O)[C@H]12	-0.45
CC(Cc1ccccc1)NC(N)=O (stereo not given)	1.55
COc1cccc2c1C(=O)c1c(O)c3c(c(O)c1C2=O)CC(O)(C(C)=NO)CC3OC1CC(N)C(O)C(C)O1 (stereo not given)	0.1
Cc1ncc([N+](=O)[O-])n1CCOC(N)=O	1.1
CCC1CN1P1(=O)OCC(C)([N+](=O)[O-])CO1 (stereo not given)	0.9
COC[C@H]1OC(=O)c2coc3c2[C@@]1(C)C1=C(C3=O)[C@@H]2CCC(=O)[C@@]2(C)C[C@H]1OC(C)=O	0.15
CNC(=O)Oc1ccc(N(C)C)cc1C(C)C	0
c1ccc2c(c1)Sc1ccccc1N2CC1CN2CCC1CC2 (stereo not given)	-0.15
CC12CCC3c4ccc(OC(=O)N(CCCl)CCCl)cc4CCC3C1CCC2O (stereo not given)	-0.45
NC(=O)c1ccc(C(=O)Nc2ccc([As](=O)(O)O)cc2)cc1	-0.6
CSc1nc(C)c(Br)c(N2CC2)n1	0.9
CCN1CC2C3CCC(C)(O3)C2C1 (stereo not given)	0.7
C[C@H]1CC[C@H]2NCCN[C@H]2C1	0.65
CC(=O)Nc1cccc([As](=O)(c2cccc(NC(C)=O)c2)c2cccc(NC(C)=O)c2)c1	0.6
CC1Oc2cc3c(-c4c(O)cc(O)c5c(O)c6c(cc45)OC(C)C(C)C6=O)c(O)cc(O)c3c(O)c2C(=O)C1C (stereo not given)	-1.45
C=Cc1cc(OC)c2c(c1)c(=O)oc1c2cc(OC)c2c(O)ccc(C3OC(C)C(O)C(C)(O)C3O)c21 (stereo not given)	-0.3
N[C@@H](Cc1ccc(N(CCCl)CCCl)cc1)C(=O)O	0.05
O=C1NC(=O)C(=Cc2csc3ccccc23)C(=O)N1	-0.05
CCC1CCC(C)N(N=O)C1 (stereo not given)	1.05

3 compounds picked at random from those above, as already listed:
Compound	T3 sensor activation Q score
O=P(Oc1ccccc1)(Oc1ccccc1)c1ccccc1	-0.75
CC(Cc1ccccc1)NC(N)=O (stereo not given)	1.55
CN1CCN(c2ccc([N+](=O)[O-])c3no[n+]([O-])c23)CC1	-0.95
